From PMC4534796
Positions count from the first letter of the chain named. Names and notes keep the numbering of the source. Results are given in words; binding and its absence hold for the method and conditions named. In cells and extracts the contact can be indirect. Where a sequence is shown, tags or fusion partners need not be part of it.

B1: HA-tagged NIK-T559A (protein, UniProt Q99558 1-947)
chain: MAVMEMACPGAPGSAVGQQKELPKAKEKTPPLGKKQSSVYKLEAVEKSPVFCGKWEILNDVITKGTAKEGSEAGPAAISIIAQAECENSQEFSPTFSERIFIAGSKQYSQSESLDQIPNNVAHATEGKMARVCWKGKRRSKARKKRKKKSSKSLAHAGVALAKPLPRTPEQESCTIPVQEDESPLGAPYVRNTPQFTKPLKEPGLGQLCFKQLGEGLRPALPRSELHKLISPLQCLNHVWKLHHPQDGGPLPLPTHPFPYSRLPHPFPFHPLQPWKPHPLESFLGKLACVDSQKPLPDPHLSKLACVDSPKPLPGPHLEPSCLSRGAHEKFSVEEYLVHALQGSVSSGQAHSLTSLAKTWAARGSRSREPSPKTEDNEGVLLTEKLKPVDYEYREEVHWATHQLRLGRGSFGEVHRMEDKQTGFQCAVKKVRLEVFRAEELMACAGLTSPRIVPLYGAVREGPWVNIFMELLEGGSLGQLVKEQGCLPEDRALYYLGQALEGLEYLHSRRILHGDVKADNVLLSSDGSHAALCDFGHAVCLQPDGLGKSLLTGDYIPGAETHMAPEVVLGRSCDAKVDVWSSCCMMLHMLNGCHPWTQFFRGPLCLKIASEPPPVREIPPSCAPLTAQAIQEGLRKEPIHRVSAAELGGKVNRALQQVGGLKSPWRGEYKEPRHPPPNQANYHQTLHAQPRELSPRAPGPRPAEETTGRAPKLQPPLPPEPPEPNKSPPLTLSKEESGMWEPLPLSSLEPAPARNPSSPERKATVPEQELQQLEIELFLNSLSQPFSLEEQEQILSCLSIDSLSLSDDSEKNPSKASQSSRDTLSSGVHSWSSQAEARSSSWNMVLARGRPTDTPSYFNGVKVQIQSLNGEHLHIREFHRVKVGDIATGISSQIPAAAFSLVTKDGQPVRYDMEVPDSGIDLQCTLAPDGSFAWSWRVKHGQLENRP
B2: HA-tagged NIK-KK429/430AA (kinase-dead NIK mutant) (protein, UniProt Q99558 1-947)
chain: B1 chain with K429A, K430A, A559T

Target: T1, Flag-tagged NDRG2 (N-myc downstream-regulated gene 2), transfected in 293T cells (UniProt Q9UN36)
T1 sequence: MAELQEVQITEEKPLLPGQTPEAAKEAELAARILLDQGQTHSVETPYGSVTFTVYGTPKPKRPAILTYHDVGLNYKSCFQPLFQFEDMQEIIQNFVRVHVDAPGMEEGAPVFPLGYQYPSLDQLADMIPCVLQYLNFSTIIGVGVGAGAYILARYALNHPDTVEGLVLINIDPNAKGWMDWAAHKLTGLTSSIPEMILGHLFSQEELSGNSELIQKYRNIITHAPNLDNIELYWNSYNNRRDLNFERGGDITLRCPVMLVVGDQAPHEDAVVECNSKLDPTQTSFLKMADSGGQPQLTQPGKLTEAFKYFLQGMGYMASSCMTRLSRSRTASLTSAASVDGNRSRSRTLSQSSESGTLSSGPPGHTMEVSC
Assay: co-IP; lysates of 293T cells co-transfected with HA-NIK (WT or mutant) and Flag-NDRG2; immunoprecipitated with anti-Flag and with anti-HA antibodies, Western blot

binding	Binder
no binding	B1
no binding	B2
